Reference: publication PMC12818747
Results are given in words; binding and its absence hold for the method and conditions named. Binding seen in cells or lysates may run through a third protein. Some entries that bind do so weakly or less than the wild type.

Sequences of proteins named here, by UniProt entry; tags and fusion partners are left off. Residues count along the entry.
UniProt P63166, residues 1-97: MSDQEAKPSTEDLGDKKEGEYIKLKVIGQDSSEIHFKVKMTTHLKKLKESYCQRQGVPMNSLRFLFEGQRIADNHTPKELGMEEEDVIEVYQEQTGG
UniProt P63165, residues 1-97: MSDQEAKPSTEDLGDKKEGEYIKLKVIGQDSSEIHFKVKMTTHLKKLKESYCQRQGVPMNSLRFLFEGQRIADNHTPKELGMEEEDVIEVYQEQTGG
UniProt P97471: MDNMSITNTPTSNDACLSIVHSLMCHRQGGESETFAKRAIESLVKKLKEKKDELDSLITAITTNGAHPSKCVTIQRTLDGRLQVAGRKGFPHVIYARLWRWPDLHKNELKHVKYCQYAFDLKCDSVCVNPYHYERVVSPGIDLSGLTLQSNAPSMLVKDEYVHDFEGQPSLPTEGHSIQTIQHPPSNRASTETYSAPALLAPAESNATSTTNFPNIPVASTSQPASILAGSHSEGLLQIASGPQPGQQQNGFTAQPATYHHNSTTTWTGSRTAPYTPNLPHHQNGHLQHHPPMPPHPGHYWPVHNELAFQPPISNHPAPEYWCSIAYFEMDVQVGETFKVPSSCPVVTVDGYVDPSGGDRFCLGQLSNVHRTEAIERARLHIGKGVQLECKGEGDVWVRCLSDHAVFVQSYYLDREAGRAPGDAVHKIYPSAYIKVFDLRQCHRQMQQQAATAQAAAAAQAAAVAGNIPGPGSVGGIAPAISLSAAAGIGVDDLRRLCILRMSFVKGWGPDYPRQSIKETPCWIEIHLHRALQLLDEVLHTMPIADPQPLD
UniProt Q13485: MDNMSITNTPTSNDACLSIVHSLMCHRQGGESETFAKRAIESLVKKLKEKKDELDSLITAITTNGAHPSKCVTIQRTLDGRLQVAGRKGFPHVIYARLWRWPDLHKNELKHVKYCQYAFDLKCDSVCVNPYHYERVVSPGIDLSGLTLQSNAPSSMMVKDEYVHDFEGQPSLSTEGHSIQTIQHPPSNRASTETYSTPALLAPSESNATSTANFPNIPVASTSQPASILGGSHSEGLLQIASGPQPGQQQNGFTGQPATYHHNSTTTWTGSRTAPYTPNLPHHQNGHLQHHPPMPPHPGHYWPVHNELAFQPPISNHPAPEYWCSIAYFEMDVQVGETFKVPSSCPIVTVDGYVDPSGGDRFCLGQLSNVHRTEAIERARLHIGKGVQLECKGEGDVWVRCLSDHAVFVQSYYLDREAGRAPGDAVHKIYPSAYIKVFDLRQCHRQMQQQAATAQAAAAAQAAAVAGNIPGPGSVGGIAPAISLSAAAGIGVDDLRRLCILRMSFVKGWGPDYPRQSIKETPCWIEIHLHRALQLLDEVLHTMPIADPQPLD

What was measured:
[1] = biological target: SUMO1 (mouse) (mouse (endogenous in C57BL/6 liver and RAW 264.7)) (UniProt P63166); assay: co-IP; RAW 264.7 cells treated with LPS (1 ug/mL), EgCF (1 mg/mL) and GA (10 nM) for 12 h; RIPA lysate; IP with anti-SUMO1 antibody or mouse IgG control, protein A/G magnetic beads, Western blot for Smad4
[2] = biological target: SUMO1 (mouse) (mouse (endogenous in C57BL/6 liver and RAW 264.7)) (UniProt P63166); assay: co-IP; total protein of peri-lesion and adjacent normal liver of CE and CE + GA mice; RIPA lysate; IP with anti-SUMO1 antibody or mouse IgG control, protein A/G magnetic beads, Western blot for Smad4
[3] = biological target: SUMO1 (human) (human (endogenous in THP-1)) (UniProt P63165); assay: co-IP; THP-1 cells treated with LPS (1 ug/mL), EgCF (1 mg/mL) and GA (10 nM) for 12 h, also with SENP1 siRNA knock-down; RIPA lysate; IP with anti-SUMO1 antibody or mouse IgG control, protein A/G magnetic beads, Western blot for Smad4

Row | binding [1] | binding [2] | binding [3] | Substance
1 | binds | binds | – | Smad4 (mouse) (from UniProt P97471 1-551)
2 | – | – | binds | Smad4 (human) (from UniProt Q13485 1-552)
